We go through 107 sequences from PubChem BioAssay AID1347426 (Functional Genomics Laboratory (NCATS/FGL), 2020).

In all, about 31,000 sequences went through this assay and about 1,400 (4.5%) were called active.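 How the source made its calls: active means median seed-adjusted z-score above 1 or below -1; inactive means the rest.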 The list shows a part of the results.

The nature of the experiment: Novel Modifiers of Survival Motor Neuron (SMN) Protein: Gene Identification via Genome-wide siRNA Screen.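 Further: luminescence tracks full-length SMN protein made from the SMN2 reporter.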 The following applies: HEK293T SMN2-luciferase reporter, siRNA knockdown, 72 h; actives lie on both sides. In short, it runs like this: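 siRNA screen, 10418 genes ×3 siRNAs; 1 pmol/well, lipid reverse transfection into HEK293T SMN2-luc reporter line. 72 h, 37 °C, 5% CO2; ONE-Glo readout. Data: neg-ctrl normalized, log10, MAD; hit = MAD >1.0 or < -1.0.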
On the technique in general: Reporter assays use an easily measured gene product as a stand-in for the process of interest.
With GCUUCUAUUUAGUCACGAATT against AKAP9, the median seed-adjusted z-score is active: -1.22.

As to GAAAUUCCACUGUAUCUAATT against COX7A2, the median seed-adjusted z-score is inactive: -0.0808. On to CACCUACUUUGGAAAGAGATT against CNP, for which the median seed-adjusted z-score is inactive: -0.116. Next, GAAUAAGCCUUCGAAAAGATT against ACTG1: inactive: -0.227; AGUCCAACCUGGUGUCGCATT against REPIN1: inactive: -0.0614. Regarding GAGCAUGUUUUUACCCUUUTT against MGC17403, the median seed-adjusted z-score is inactive: 0.204. For AGAUGAGGAGUGUCGUCAATT against KLK13, the median seed-adjusted z-score is inactive: 0.452. For the sequence CCAUAUGUGGUGACACGUUTT against MAPK10, the median seed-adjusted z-score was inactive: -0.0114. As to AGGGCUAUCUGGUAUCUGUTT against SNRPF, the median seed-adjusted z-score is active: -2.66.

Consider GCCUUAAGGCAGUUCUUAUTT against CYTH3, for which the median seed-adjusted z-score was inactive: 0.196. Next, GCAGAUGGUUAUAAGCACATT against GLA: inactive: -0.494; UCACAUGACCUUUGACUUUTT against LINGO4: inactive: 0.388; GCUCUAAUCUUGAACUUCATT against ZNF233: inactive: 0.59. With CCUUGAUCCUCGACUGUAATT against COL5A1, the median seed-adjusted z-score was inactive: -0.00475. In the case of “GCAUGACCAUGAUUCGAGUTT against ST6GALNAC3”, the median seed-adjusted z-score is inactive: -0.205. Take GGCGAGUUGUUUACCCUUUTT against DKC1: the median seed-adjusted z-score was inactive: -0.203. For the sequence CAGAUGACUUCAGAACCAATT against KRT33B, the median seed-adjusted z-score is inactive: 0.04.

Consider GGAUGCCGCAGUAUCGUAATT against DNAJA2, for which the median seed-adjusted z-score is inactive: 0. GCAUCUAUGGUGAGACAUUTT against PPIC: the median seed-adjusted z-score is inactive: 0.0824. Take GGGUUUGGAUAGGAUCAAUTT against PPP3CB: the median seed-adjusted z-score is inactive: 0.0225. Under GCCCACAAUGACUCACAUATT against GLYCTK stands inactive: 0.0328; under CGGUAUCACGUGACAAUCATT against KLF16, inactive: 0.461. In the case of GAUGGAAGCUUACUAGAUUTT against TCF7L2, the median seed-adjusted z-score is inactive: 0.189.

As for GGCUGGACAUAUUCAAGGATT against LARP1, the median seed-adjusted z-score is inactive: 0.251.

With CAGAUUACCUGUUUCGUGATT against NPC1, the median seed-adjusted z-score was inactive: -0.195. For the sequence UGAGAGUCCACGGCCCAUATT against TPSAB1, the median seed-adjusted z-score is inactive: 0.197. For GAACGGGUAGAUGAAAUUATT against METTL3, the median seed-adjusted z-score was inactive: 0.261. Under GGAUGUUCGCGAUGGACAATT against MAP3K15 stands inactive: -0.315. Next, CGGUGACUGCUUAUCAGAATT against T: inactive: -0.018; GUAUUGAAGUUAGAGUUGUTT against NKRF: inactive: -0.0368; CCAAUGGAACUAUCCGGAATT against IDH2: inactive: 0.0592. Next, GGUCUAACUCAAUAAUGGATT against REV3L: inactive: 0.062; GAAGCAGCUUGAAACCAGATT against COL22A1: inactive: 0.3. As for CAAAAGGACAAGAACAAUATT against TERF1, the median seed-adjusted z-score was inactive: 0.0114. For GCUAUCGACCAGUACAACATT against NPBWR1, the median seed-adjusted z-score was inactive: 0.344. Next, CCUCUACGCUACUACCUGATT against TSPYL2: inactive: 0.0187; GGACUAUCCUUGAGGCAAATT against ATP6AP2: inactive: -0.705.

Take GUUUCAUCUGGGUUCGCUATT against SF3B3: the median seed-adjusted z-score is active: -2.53. Next, CGGCUAUCCUGAUGACAUUTT against MME: inactive: 0.129. For the sequence AGCUGUACAAGUUCCCGGATT against SYT15, the median seed-adjusted z-score was inactive: 0.0164.

With CCCUCACUAUCACGGUUAATT against ATP6V1B2, the median seed-adjusted z-score was inactive: 0.24.

Consider CAAUCAUGAUCGCAGAGAATT against CHDH, for which the median seed-adjusted z-score is inactive: 0.0241.

GGCUUAUGGAUGACAUUUATT against NDUFS2: the median seed-adjusted z-score was inactive: -0.388. As to CGGUAUCAUUACUGGAUAATT against LNPEP, the median seed-adjusted z-score is inactive: -0.386. GCAUGGUAUUGGAAUAACUTT against CHEK1: the median seed-adjusted z-score is active: -5.1. Under GAAACAGUGAGUUAAAGCATT against GPR44 stands inactive: -0.527; under GACUGCAUCUUAGUCAACATT against ALG2, inactive: 0.631; under AACUCAUCCUGAUGCCUAATT against PHC1, inactive: -0.615. Under CCAUGGAUAUGGAAACCCATT against ALPK3 stands inactive: 0.365; under GGACUCCAGUGGUAGCUAUTT against AARS, inactive: 0. Consider CGCUCUUAAAGAUGAGUUATT against SYK, for which the median seed-adjusted z-score is inactive: 0.567.

With GAAACCCUAUUACGAUGAATT against SOX30, the median seed-adjusted z-score was inactive: -0.167. Regarding GAAGGACUCCUGCAACGGUTT against KLK4, the median seed-adjusted z-score was inactive: 0.437. GGCAACAACUGGAUCUGAATT against PIGZ: the median seed-adjusted z-score is inactive: 0.74. Regarding ACAACUUCGUUUUCGGUCATT against TUBB2C, the median seed-adjusted z-score was inactive: 0. In the case of GUGUGAAGGUAGACCGUGATT against SPATA20, the median seed-adjusted z-score was inactive: 0. Turning to GCAAUGACUCUAAACUGGATT against S100A14, the median seed-adjusted z-score was inactive: 0.0172. As for CGAGCCACCGAGAAGAUAATT against ATAD3A, the median seed-adjusted z-score was inactive: -0.283. Consider CGUGAGAUCUACGACUUCATT against PTDSS2, for which the median seed-adjusted z-score is inactive: 0.0941. Turning to GGCACGUUUUACGACAGAATT against CHEK2, the median seed-adjusted z-score is inactive: 0.585. On to GCAAGGUUGUAAAAUCAAATT against MEX3B, for which the median seed-adjusted z-score was inactive: -0.0576. For the sequence GAUAAUUACUAUCACCUAUTT against PCDHGA5, the median seed-adjusted z-score is inactive: 0.163. Regarding UGGAAAUACUUAUCCCAAUTT against SPINK1, the median seed-adjusted z-score was inactive: 0.292. Next, GGUGUAUGAUGGAUACUGATT against COPG2: inactive: -0.564. Turning to CAGUUGCGUUAAUUCGAAATT against HECTD1, the median seed-adjusted z-score was inactive: -0.0588.

In the case of CAGCGUGUAUUAGAGAGUATT against GPD2, the median seed-adjusted z-score was inactive: 0.0606. Take CGACAUUACUAAUCAGGAATT against RAB5B: the median seed-adjusted z-score is inactive: 0.299.

Turning to CAGUAGUGCCUGUCGGGAATT against LEPROT, the median seed-adjusted z-score is inactive: -0.17. Turning to GCAAGUCGUCUAUUCAGAATT against RRAGD, the median seed-adjusted z-score is inactive: 0.313. As for AAGUUCCUAUCGGUCGUAUTT against HBZ, the median seed-adjusted z-score is inactive: -0.0054. Consider CAGCUAUUUCUGAUAGAUATT against MTMR12, for which the median seed-adjusted z-score was inactive: 0.419. For the sequence GGACUUACACUCUUAGGAATT against MAOB, the median seed-adjusted z-score is inactive: 0. Next, UCCGGGCUGUGAAAAGUUATT against GALNS: inactive: 0.0287; GAGUUUAGCUGUAAGGACATT against ACOX2: inactive: -0.545; GGAAGACCAGUGUACUUUATT against RAB27A: inactive: -0.134.

In the case of CAGACAGUAUGUUCGAAGATT against PPAT, the median seed-adjusted z-score was active: -1.51. With CUCAGGACAUUGCUUCUUATT against TMEM1, the median seed-adjusted z-score is inactive: -0.191. Take CCAACAGACAUAAACACGATT against TCF12: the median seed-adjusted z-score was inactive: -0.16. GAAGCAUCCUGAUGACGAATT against CRTAP: the median seed-adjusted z-score was inactive: 0.581.

Take GGUGAUACUAUCAACCAAATT against YAP1: the median seed-adjusted z-score was inactive: -0.247. As to CCCUCUAUCCAGUAUCUAATT against RFXDC2, the median seed-adjusted z-score was inactive: 0.724. As to GUCUACAUCUUUGCACUUUTT against GPR97, the median seed-adjusted z-score is inactive: -0.0155. In the case of GCUUACAUAGCAAAUCUAATT against ST8SIA2, the median seed-adjusted z-score is inactive: 0.516.

As for CCCUAUGUAUGAAGGAUAUTT against USP1, the median seed-adjusted z-score was inactive: -0.564.

For the sequence GGACAUUGAUGUGAUCCUATT against ALPPL2, the median seed-adjusted z-score was inactive: 0.331. In the case of CCCUGGAUGUCCUAUCUGATT against SLC2A1, the median seed-adjusted z-score is inactive: -0.349. Next, UGGUGAUGCUGACAGCUGATT against RCC1: inactive: -0.165. For the sequence GUGUCUCCAUAGUACGAGATT against ELP3, the median seed-adjusted z-score was inactive: 0.321. Next, CGAUUACCUUUGGAUAAGATT against TNPO3: inactive: 0.577; GCUGAACUCAUUUACAAGATT against B3GALT1: inactive: -0.0555. For AGAUGUUACAUAAAACGAUTT against PTPN20B, the median seed-adjusted z-score was inactive: -0.62. On to CAGCAUUUAUCAAGUCUUATT against BMP6, for which the median seed-adjusted z-score is inactive: 0.301. For GCAAGAGUCGUUCACCAGATT against MGMT, the median seed-adjusted z-score is inactive: -0.0549. Under GGAAAUACCUAGGCCGGUATT against GYS1 stands inactive: 0.874; under CUGGACAACUGAAACAAUUTT against GSTM3, inactive: -0.66; under GGAUUGAUAAAGAGGUAAATT against ASH1L, inactive: -0.197. For the sequence CCAAGCAAAAUGUAGAUUATT against MGAT4C, the median seed-adjusted z-score was inactive: 0.187. With UGUUAAGCUUUACCAUUAATT against ATP5G1, the median seed-adjusted z-score is inactive: -0.311. With GCAGCUUCAAGAUCAAUGATT against ANTXR1, the median seed-adjusted z-score was inactive: -0.0849. Consider GCUUGUAACUUGACGAGCUTT against DOCK7, for which the median seed-adjusted z-score was inactive: 0.23. Take GAUUCUUUUGAAAAAGUGATT against ZNF675: the median seed-adjusted z-score was inactive: -0.343. As for AGGAGGUUACGGCACAAAATT against STK11, the median seed-adjusted z-score was inactive: 0.348. For the sequence GUAUAUCACCAGUUUCACATT against KCNJ13, the median seed-adjusted z-score is inactive: 0.327.

Take GCAAGGAUGGUGUUCCAUATT against ABLIM3: the median seed-adjusted z-score was inactive: -0.29.

In the case of GCACCAACGUGUCACUGCUTT against TSKS, the median seed-adjusted z-score is inactive: -0.0409. Turning to CCAUCUACCAGCUAAUCAATT against PIK3C2G, the median seed-adjusted z-score is inactive: 0.0251. Next, CAUUCAGACUGGGUAAACATT against IL10RB: inactive: 0.167.
